Measured data: PubChem BioAssay AID686938 (Drosophila RNAi Screening Center, 2013)

Assay: 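Fly genes required for calcium entry once internal stores are emptied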 (primary screen)
System: Drosophila S2R+ cells
Reagents: long dsRNA against Drosophila genes, about 0.25 µg dsRNA per well, roughly 10,000 cells
Timing: 5 days of knock-down before the calcium assay
Treatment: thapsigargin (SERCA pump blocker) to empty calcium stores; entry signal taken 4 min after adding it
Read-out: 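Duplicate raw fluo-4 intensities per well from a plate reader, at rest and four minutes after thapsigargin emptied calcium stores; entry-to-rest ratio filled for only some wells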
Scale: calcium entry signal: higher = stronger calcium signal after store depletion; entry to resting ratio: higher = more calcium entry relative to resting level; resting calcium signal: higher = higher resting calcium signal
Units: calcium entry signal in fluorescence units; resting calcium signal in fluorescence units
Call rule: 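Hit if the duplicate-averaged plate z-score for entry over resting signal is under −3; wells with weak total dye signal (Fmax z < −2) or more than 5 off-targets removed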
Calls: active = strongly reduced calcium entry; inactive = no strong reduction
In all, the deposit lists about 23,000 reagents; below is a random part of those with a known target gene and a result. Of all reagents, 75 (0.33%) were called active. 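Raw plate signals without normalisation; calls rest on plate z-scores that were not deposited; ratio present for only 364 wells.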 A number with no mark means an inactive call. A plus sign joins genes that one reagent is predicted to hit. No sequences are given here. Not given: the dose of the treatment.

Oct-TyrR (GeneID 42452) [DRSC11883] showed calcium entry signal, replicate 1 = 3.08e7; calcium entry signal, replicate 2 = 5.69e7; resting calcium signal, replicate 1 = 1.53e7; resting calcium signal, replicate 2 = 2.53e7.
For CycG (GeneID 43724) [DRSC14324] the deposit lists calcium entry signal, replicate 1 = 3.13e7; calcium entry signal, replicate 2 = 4.22e7; resting calcium signal, replicate 1 = 1.51e7; resting calcium signal, replicate 2 = 2.08e7.
Silencing of CycG (GeneID 43724) [DRSC23345] resulted in: calcium entry signal, replicate 1 = 2.82e7; calcium entry signal, replicate 2 = 3.78e7; resting calcium signal, replicate 1 = 1.72e7; resting calcium signal, replicate 2 = 1.68e7.
Silencing of Klp67A + CG34456 [DRSC10420] came out at: calcium entry signal, replicate 1 = 1.46e7; calcium entry signal, replicate 2 = 2.32e7; resting calcium signal, replicate 1 = 8.15e6; resting calcium signal, replicate 2 = 9.87e6.
For CG8907 (GeneID 42050) [DRSC16453] the deposit lists calcium entry signal, replicate 1 = 3.51e7; calcium entry signal, replicate 2 = 2.60e7; resting calcium signal, replicate 1 = 1.65e7; resting calcium signal, replicate 2 = 1.30e7.
CG13862 (GeneID 42610) [DRSC14712] gave calcium entry signal, replicate 1 = 3.72e7; calcium entry signal, replicate 2 = 4.29e7; resting calcium signal, replicate 1 = 5.30e7; resting calcium signal, replicate 2 = 2.01e7.
Knock-down of Vsp37A (GeneID 31006) [DRSC18794] came out at: calcium entry signal, replicate 1 = 3.30e7; calcium entry signal, replicate 2 = 4.50e7; entry to resting ratio 2; resting calcium signal, replicate 1 = 1.64e7; resting calcium signal, replicate 2 = 1.81e7.
Depletion of CG2816 (GeneID 33595) [DRSC00539] gave: calcium entry signal, replicate 1 = 3.46e7; calcium entry signal, replicate 2 = 2.90e7; resting calcium signal, replicate 1 = 1.72e7; resting calcium signal, replicate 2 = 1.47e7.
Against CG11570 (GeneID 39357) [DRSC09844], the entry reads calcium entry signal, replicate 1 = 3.15e7; calcium entry signal, replicate 2 = 4.14e7; resting calcium signal, replicate 1 = 1.60e7; resting calcium signal, replicate 2 = 1.90e7.
GstE6 (GeneID 37111) [DRSC06676] showed calcium entry signal, replicate 1 = 6.11e7; calcium entry signal, replicate 2 = 5.07e7; resting calcium signal, replicate 1 = 2.52e7; resting calcium signal, replicate 2 = 2.46e7.
After knock-down of CG14072 (GeneID 34513) [DRSC02375] the results were calcium entry signal, replicate 1 = 2.96e7; calcium entry signal, replicate 2 = 3.73e7; resting calcium signal, replicate 1 = 1.44e7; resting calcium signal, replicate 2 = 1.58e7.
Against CG3491 (GeneID 34870) [DRSC01934], the values are calcium entry signal, replicate 1 = 3.81e7; calcium entry signal, replicate 2 = 2.20e7; resting calcium signal, replicate 1 = 1.65e7; resting calcium signal, replicate 2 = 1.18e7.
Silencing of MetRS-m (GeneID 41733) [DRSC16443] came out at: calcium entry signal, replicate 1 = 3.16e7; calcium entry signal, replicate 2 = 3.65e7; resting calcium signal, replicate 1 = 1.35e7; resting calcium signal, replicate 2 = 1.62e7.
After knock-down of MetRS-m (GeneID 41733) [DRSC16515], the screen gave calcium entry signal, replicate 1 = 2.16e7; calcium entry signal, replicate 2 = 2.71e7; resting calcium signal, replicate 1 = 1.08e7; resting calcium signal, replicate 2 = 4.68e7.
With knock-down of trbl (GeneID 43999) [DRSC11901], the screen gave calcium entry signal, replicate 1 = 2.64e7; calcium entry signal, replicate 2 = 4.56e7; resting calcium signal, replicate 1 = 1.20e7; resting calcium signal, replicate 2 = 1.90e7.
With knock-down of CG14352 (GeneID 33341) [DRSC00382], the record shows calcium entry signal, replicate 1 = 3.52e7; calcium entry signal, replicate 2 = 4.74e7; resting calcium signal, replicate 1 = 1.62e7; resting calcium signal, replicate 2 = 1.77e7.
Against TppII (GeneID 36444) [DRSC07565], the values are calcium entry signal, replicate 1 = 3.51e7; calcium entry signal, replicate 2 = 3.73e7; resting calcium signal, replicate 1 = 1.66e7; resting calcium signal, replicate 2 = 1.69e7.
Against Mis12 (GeneID 38762) [DRSC10299], the entry reads calcium entry signal, replicate 1 = 3.05e7; calcium entry signal, replicate 2 = 3.47e7; resting calcium signal, replicate 1 = 1.68e7; resting calcium signal, replicate 2 = 1.78e7.
After knock-down of CR33283 (GeneID 10178863) [DRSC22918] the results were calcium entry signal, replicate 1 = 3.23e7; calcium entry signal, replicate 2 = 3.51e7; resting calcium signal, replicate 1 = 1.72e7; resting calcium signal, replicate 2 = 1.55e7.
Silencing of Fib (GeneID 37662) [DRSC04614] gave: calcium entry signal, replicate 1 = 2.37e7; calcium entry signal, replicate 2 = 2.57e7; resting calcium signal, replicate 1 = 1.48e7; resting calcium signal, replicate 2 = 1.59e7.
For Wnt2 (GeneID 35975) [DRSC05160] the deposit lists calcium entry signal, replicate 1 = 2.81e7; calcium entry signal, replicate 2 = 3.70e7; resting calcium signal, replicate 1 = 1.39e7; resting calcium signal, replicate 2 = 1.72e7.
After knock-down of Wnt2 (GeneID 35975) [DRSC07574] the results were calcium entry signal, replicate 1 = 3.96e7; calcium entry signal, replicate 2 = 4.08e7; resting calcium signal, replicate 1 = 1.96e7; resting calcium signal, replicate 2 = 1.91e7.
Against CG12507 (GeneID 32580) [DRSC19463], the values are calcium entry signal, replicate 1 = 4.26e7; calcium entry signal, replicate 2 = 2.56e7; resting calcium signal, replicate 1 = 2.16e7; resting calcium signal, replicate 2 = 1.25e7.
After knock-down of CG6800 (GeneID 42562) [DRSC16119] the results were calcium entry signal, replicate 1 = 3.26e7; calcium entry signal, replicate 2 = 3.61e7; resting calcium signal, replicate 1 = 4.51e7; resting calcium signal, replicate 2 = 1.78e7.
CG14187 (GeneID 40199) [DRSC10186] showed calcium entry signal, replicate 1 = 3.13e7; calcium entry signal, replicate 2 = 5.00e7; resting calcium signal, replicate 1 = 1.55e7; resting calcium signal, replicate 2 = 2.11e7.
Against CCT2 (GeneID 31838) [DRSC18415] the deposit lists calcium entry signal, replicate 1 = 2.23e7; calcium entry signal, replicate 2 = 2.16e7; resting calcium signal, replicate 1 = 1.20e7; resting calcium signal, replicate 2 = 1.24e7.
Against mav (GeneID 43804) [DRSC17149], the values are calcium entry signal, replicate 1 = 6.20e7; calcium entry signal, replicate 2 = 5.47e7; entry to resting ratio 2.1; resting calcium signal, replicate 1 = 3.00e7; resting calcium signal, replicate 2 = 2.32e7.

2 entries from above in another layout.
gene knocked down | dsRNA | calcium entry signal, replicate 1 | calcium entry signal, replicate 2 | entry to resting ratio | resting calcium signal, replicate 1 | resting calcium signal, replicate 2
Klp67A + CG34456 | DRSC10420 | 1.46e7 | 2.32e7 | – | 8.15e6 | 9.87e6
CG8907 (GeneID 42050) | DRSC16453 | 3.51e7 | 2.60e7 | – | 1.65e7 | 1.30e7
